Assay results published in PubChem BioAssay AID504834 (National Center for Advancing Translational Sciences (NCATS), 2011).
The whole screen tested about 320,000 compounds, of which about 22,000 (6.9%) were called active. The inconclusive results got no clear call from the source; some entries with a clear call stand among them for comparison. Calls come from the whole dose curve; as a rule, active = well fitted inhibition curve with a large enough effect; inconclusive = small, poorly fitted or top-dose-only effect, or another doubt; inactive = no such curve, though single readings can be large or run the other way. Potencies of inconclusive entries are doubtful fits and often do not repeat.

Assay: Primary qHTS for delayed death inhibitors of the malarial parasite plastid, 96 hour incubation
Settings: P. falciparum luciferase reporter growth; series mostly up to 28.7 µM
Procedure, shortened: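 Erythrocytes infected with luciferase-expressing P. falciparum were dispensed at 2% hematocrit and 0.05% parasitemia (final), then incubated with compounds 96 hours at 37 C in 5% CO2. Luminescence after detection reagent addition reported growth.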
Potency is the fitted concentration of half-maximal effect.

Question: For `C[C@H](CCCC/C=C/C(=O)O)O[C@@H]1O[C@@H](C)[C@H](O)C[C@H]1O`, which Potency is on record?
Answer: inconclusive: 14.7 µM [inhibitor, single point]

Question: For `COc1ccc(S(=O)(=O)N2CCOCC2)cc1NC(=O)Cc1coc2cc(C)c(C)cc12`, which Potency is on record?
Answer: inconclusive: 10.4 µM [inhibitor, single point]

Question: Which Potency does the source give for `c1ccc(C2Nc3ccccc3Oc3ccccc32)cc1` (stereo not drawn) here?
Answer: active: 5.22 µM

Question: With `COc1ccc(C2CC(c3ccc(Br)cc3)=NN2C(=O)c2cccnc2)cc1` (stereo not drawn) as the compound, how does the Potency read?
Answer: inconclusive: 10.4 µM [inhibitor, single point]

Question: For `C=CCN1C(=O)/C(=C/c2ccc3c(c2)CCCN3CCC)C(=O)NC1=S`, which Potency is on record?
Answer: inactive

Question: With `CCCS(=O)(=O)N1CCN=C1SCc1ccc(F)cc1` as the compound, how does the Potency read?
Answer: inactive

Question: With `CSc1nnnn1-c1ccc(C)c(Cl)c1` as the compound, how does the Potency read?
Answer: inactive

Question: For `Cc1cccc(Cn2c(-c3ccc[nH]c3=O)nc3ccccc32)c1`, which Potency is on record?
Answer: inactive

Question: For `Cc1cccc(NC(=O)c2cc(NC(=O)c3ccco3)ccc2N2CCCCC2)c1`, which Potency is on record?
Answer: inconclusive: 18.5 µM [inhibitor, single point]

Question: Which Potency does the source give for `CSc1cccc(NC(=O)C2C3C=CC4(O3)C2C(=O)N(CCN2CCOCC2)C4C(=O)NC2CCCCC2)c1` (stereo not drawn) here?
Answer: inconclusive: 9.28 µM [inhibitor, partial curve]

Question: For `CCOC(=O)c1[nH]c2cc3c(cc2c1NC(=O)CN1CCC2(CC1)OCCO2)OCO3`, which Potency is on record?
Answer: inconclusive: 18.5 µM [inhibitor, single point]

Question: With `CCCOC(=O)CSc1nc(N2CCOCC2)c2c(c1C#N)CC(C)(C)OC2` as the compound, how does the Potency read?
Answer: active: 1.85 µM

Question: With `CCOC(=O)c1c(NC(=O)CSc2nnc(C)s2)sc2c1CCC(C)C2` (stereo not drawn) as the compound, how does the Potency read?
Answer: inactive

Question: With `O=C(CCN1C(=O)C2C3C=CC(C4CC34)C2C1=O)OCC(=O)c1ccccc1` (stereo not drawn) as the compound, how does the Potency read?
Answer: inconclusive: 0.294 µM [inhibitor, partial curve, poor fit]

Question: With `CCN(c1ccc(OC)cc1)S(=O)(=O)c1nnc(NC(=O)c2ccc(C)cc2)s1` as the compound, how does the Potency read?
Answer: inconclusive: 6.57 µM [inhibitor, partial curve, poor fit]

Question: For `CC(CCc1ccco1)NC(=O)c1cccc2c1C(=O)N(C1CCCCC1)C2` (stereo not drawn), which Potency is on record?
Answer: inconclusive: 10.4 µM [inhibitor, single point]

Question: For `COc1ccc(NC(=O)c2ccccc2N(Cc2ccccc2)S(C)(=O)=O)c(OC)c1`, which Potency is on record?
Answer: inconclusive: 18.5 µM [inhibitor, single point]

Question: For `CCn1cc(CN2CCC(C(=O)Nc3cccc(-c4cccc(Cl)c4)c3)CC2)cn1`, which Potency is on record?
Answer: inactive

Question: For `O=C(CCC1COc2ccccc2O1)NCc1ccccc1` (stereo not drawn), which Potency is on record?
Answer: active: 3.7 µM

Question: For `CN(C(=O)c1cccs1)c1ccc(OCC(=O)N2CCC(C(N)=O)CC2)cc1`, which Potency is on record?
Answer: inactive

Question: Which Potency does the source give for `CCOC(=O)c1cc(C#N)c(Oc2cccc(C(F)(F)F)c2)nc1-c1ccccc1` here?
Answer: inconclusive: 10.4 µM [inhibitor, single point]

Question: Which Potency does the source give for `CCn1c2ccc(F)cc2c2nnc(SCCN3CCCCC3)nc21` here?
Answer: inconclusive: 11.7 µM [inhibitor, single point]

Question: Which Potency does the source give for `CCOc1cc(/C=C2\C(=O)N(CCc3ccc(OC)c(OC)c3)C(C)=C2C(=O)OC)ccc1O` here?
Answer: inconclusive: 4.15 µM [inhibitor, single point]

Question: For `O=C(NCCCN1CCN(c2ccccc2F)CC1)C1CC(=O)N(C2CCCC2)C1` (stereo not drawn), which Potency is on record?
Answer: active: 11.7 µM

Question: Which Potency does the source give for `CCCC1(C(=O)OCC)NC(c2ccc(N(C)C)cc2)C2C(=O)N(c3ccc(OCC)cc3)C(=O)C21` (stereo not drawn) here?
Answer: inconclusive: 2.08 µM [inhibitor, full curve, poor fit]

Question: With `COc1ccccc1C(=O)NCCC(=O)NCC(c1ccco1)N1CCCC1` (stereo not drawn) as the compound, how does the Potency read?
Answer: active: 11.7 µM

Question: With `Cc1cc(-c2nnc3n2N=C(c2ccc(-c4ccccc4)cc2)CS3)n[nH]1` as the compound, how does the Potency read?
Answer: inconclusive: 11.7 µM [inhibitor, single point]

Question: Which Potency does the source give for `O=C(CN(C(=O)c1csnn1)c1cccc(F)c1)NCc1ccc2c(c1)OCO2` here?
Answer: inactive

Question: For `CCOC(=O)C1=C(CSc2nc3c(cc2C#N)CN(C)CC3)OC(N)=C(C#N)C1c1ccc(Cl)cc1` (stereo not drawn), which Potency is on record?
Answer: inconclusive: 1.31 µM [inhibitor, partial curve, poor fit]

Question: With `COc1ccc(N2C(=O)C(Cl)=C(N3CCOCC3)C2=O)cc1` as the compound, how does the Potency read?
Answer: inconclusive: 6.57 µM [inhibitor, partial curve, poor fit]

Question: For `COc1ccc(C(=O)Cn2nnc(-c3ccccc3NC(=O)C3CC3)n2)cc1`, which Potency is on record?
Answer: inconclusive: 9.28 µM [inhibitor, partial curve, poor fit]

Question: For `Cc1ccc(CN2C(=O)CCC2C(=O)NCc2ccc(F)cc2)cc1` (stereo not drawn), which Potency is on record?
Answer: inactive

Question: Which Potency does the source give for `COc1ccccc1C1c2c(C)nn(-c3ccccc3)c2NC(=O)C1NC(=O)c1ccccc1` (stereo not drawn) here?
Answer: inconclusive: 13.1 µM [inhibitor, single point]

Question: Which Potency does the source give for `COc1ccc(S(=O)(=O)Nc2ccc(C)c(S(=O)(=O)N3CCOCC3)c2)cc1[N+](=O)[O-]` here?
Answer: inactive

Question: With `CCCNC(=O)Nc1ccc2c(c1)nc(C)n2C` as the compound, how does the Potency read?
Answer: inactive

Question: Which Potency does the source give for `O=C(c1ccccc1F)N(NC(=O)C(O)(c1ccccc1)c1ccccc1)c1ccccc1` here?
Answer: inactive

Question: Which Potency does the source give for `Cc1cccc(OCC(=O)N/N=C/c2ccccc2C(=O)O)c1` here?
Answer: inconclusive: 16.5 µM [inhibitor, single point]

Question: Which Potency does the source give for `Cc1cccc(Nc2nnc(SCC(=O)Nc3ccccc3[N+](=O)[O-])s2)c1` here?
Answer: inconclusive: 11.7 µM [inhibitor, single point]

Question: For `O=C(c1ccc(F)cc1)C1CCN(C(=O)N2CCOCC2)CC1`, which Potency is on record?
Answer: inconclusive: 11.7 µM [inhibitor, single point]

Question: For `Cc1nc2c3ccccc3nc(NNC(=O)CCC(=O)N3CCN(c4ccccc4F)CC3)n2n1`, which Potency is on record?
Answer: inconclusive: 18.5 µM [inhibitor, single point]

Question: With `CCOC(=O)N1CCC(NS(=O)(=O)c2ccc3c(c2)OCC(=O)N3)CC1` as the compound, how does the Potency read?
Answer: inconclusive: 16.5 µM [inhibitor, single point]

Question: With `COc1cc(/C=N/NC(=O)c2ccccn2)ccc1OC(=O)c1ccc(Br)cc1` as the compound, how does the Potency read?
Answer: inactive

Question: For `CC(=O)N1CCN(C(=O)c2ccc3oc(CCCc4ccccc4)nc3c2)CC1`, which Potency is on record?
Answer: active: 13.1 µM

Question: Which Potency does the source give for `CCOc1ccc(-n2nnnc2SCC(=O)NNC(=O)c2ccco2)cc1` here?
Answer: inconclusive: 14.7 µM [inhibitor, single point]

Question: For `C=CCCC(=O)Nc1nc(C)c(-c2csc(Nc3ccc(Cl)cc3)n2)s1`, which Potency is on record?
Answer: active: 0.657 µM

Question: Which Potency does the source give for `COc1ccc(-n2c(SCC(=O)Nc3cc(C)on3)nc3ccccc3c2=O)cc1Cl` here?
Answer: inconclusive: 5.22 µM [inhibitor, partial curve]

Question: For `Cc1ccc(CNC(=O)CSc2c3c(nc4ccc(Cl)cc24)CCCC3)o1`, which Potency is on record?
Answer: inconclusive: 0.522 µM [inhibitor, full curve, poor fit]

Question: Which Potency does the source give for `CCc1ccc(N(C(=O)CCC(=O)Nc2cc(C)on2)C(C(=O)NC2CCCC2)c2ccco2)cc1` (stereo not drawn) here?
Answer: inconclusive: 14.7 µM [inhibitor, partial curve, poor fit]

Question: For `CC1CCN(C(=O)CCc2nnc3ccc(NCCCN4CCCC4=O)nn23)CC1`, which Potency is on record?
Answer: inconclusive: 16.5 µM [inhibitor, single point]

Question: With `CCOC(=O)[C@H]1[C@H]2COc3cc(OC)ccc3[C@@H]2N2C(=O)c3ccc(F)cc3NC(=O)[C@@]12C` as the compound, how does the Potency read?
Answer: inconclusive: 18.5 µM [inhibitor, single point]

Question: Which Potency does the source give for `CC1(C)Cc2c(cnn2-c2ccc(F)cc2)C(NC(=O)CCn2cncn2)C1` (stereo not drawn) here?
Answer: inconclusive: 9.28 µM [inhibitor, partial curve, poor fit]

Question: With `C/C(=N\NC(=O)c1ccc(Cl)cc1)c1ccc2[nH]ccc2c1` as the compound, how does the Potency read?
Answer: inconclusive: 18.5 µM [inhibitor, single point]

Question: For `Cc1cc(Cl)ccc1OC(C)C(=O)N1CCCN(C(=O)C(C)Oc2ccc(Cl)cc2C)CC1` (stereo not drawn), which Potency is on record?
Answer: inconclusive: 10.4 µM [inhibitor, single point]

Question: For `Cc1ccc(NC(=O)N(Cc2ccco2)Cc2cc3cc(C)cc(C)c3nc2Cl)cc1`, which Potency is on record?
Answer: inconclusive: 18.5 µM [inhibitor, single point]

Question: Which Potency does the source give for `O=C(NCc1ccc2c(c1)OCO2)C1CC(=O)N(C2CCCCCC2)C1` (stereo not drawn) here?
Answer: inconclusive: 13.1 µM [inhibitor, partial curve, poor fit]

Question: With `N#CCN=C(c1ccccc1)c1ccccc1` as the compound, how does the Potency read?
Answer: inactive

Question: Which Potency does the source give for `COc1ccccc1C(CNC(=O)c1ccc(-c2ccccc2Cl)o1)N1CCCC1` (stereo not drawn) here?
Answer: active: 10.4 µM

Question: With `Cc1ccccc1NC(=O)C1COc2ccccc2O1` (stereo not drawn) as the compound, how does the Potency read?
Answer: inactive

Question: Which Potency does the source give for `Cc1cc(C)c(C)c(OCC(=O)O/N=C(\N)c2cccnc2)c1` here?
Answer: inconclusive: 0.415 µM [inhibitor, full curve, poor fit]

Question: With `O=C1C2CC(O)CN2C(=S)N1Cc1ccccc1` (stereo not drawn) as the compound, how does the Potency read?
Answer: inactive

Question: With `N#C/C(=C/c1ccc(CNS(=O)(=O)c2ccccc2)o1)C(=O)NCc1ccccc1` as the compound, how does the Potency read?
Answer: inconclusive: 2.94 µM [inhibitor, single point]

Question: Which Potency does the source give for `CC(C)CC(=O)O/N=C1\C(=O)N(c2ccccc2)c2ccccc21` here?
Answer: inconclusive: 4.15 µM [inhibitor, single point]

Question: With `O=S(=O)(c1cc(Br)c(Cl)s1)N1CCCC1` as the compound, how does the Potency read?
Answer: inconclusive: 18.5 µM [inhibitor, single point]

Question: Which Potency does the source give for `O=C(CN1CCC(C(=O)c2ccc(Cl)cc2)CC1)NC1CCCC1` here?
Answer: inactive

Question: With `COc1ccc(CCNC(=O)Cn2nnc3ccccc3c2=O)cc1` as the compound, how does the Potency read?
Answer: inconclusive: 13.1 µM [inhibitor, single point]

Question: For `COc1ccccc1C(=O)Nc1ccc2c(c1)CC1(C(=O)N(C)C(=O)N(C)C1=O)C1CCCN21` (stereo not drawn), which Potency is on record?
Answer: active: 2.62 µM

Question: For `O=S(=O)(c1ccc(OCC(O)CN2CCCC2)cc1)N1CCOCC1` (stereo not drawn), which Potency is on record?
Answer: inactive

Question: Which Potency does the source give for `COc1ccc2[nH]c(C(=O)N3CCC(CO)(Cc4cccc(C(F)(F)F)c4)CC3)c(C)c2c1` here?
Answer: inconclusive: 11.7 µM [inhibitor, single point]
